Screen size: about 31,000 sequences; about 1,400 (4.5%) were called active.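 How the source made its calls: active means median seed-adjusted z-score above 1 or below -1; inactive means the rest.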 This is one part of the list.

The nature of this experiment: Novel Modifiers of Survival Motor Neuron (SMN) Protein: Gene Identification via Genome-wide siRNA Screen.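 Further: luminescence tracks full-length SMN protein made from the SMN2 reporter.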 Particulars: HEK293T SMN2-luciferase reporter, siRNA knockdown, 72 h; actives lie on both sides. In a few lines:
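Each of three siRNAs per gene is reverse-transfected (1 pmol) into reporter HEK293T cells whose luciferase output tracks SMN protein level. After 72 h culture, ONE-Glo luminescence is control-normalized, log10-transformed and MAD-standardized; Common Seed Analysis deprioritizes seed-driven hits.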
In general terms: In a reporter assay the amount or activity of a reporter protein is the signal.
Turning to CGAUAUCUGACGCAGCUAATT against RPS6KA2, the median seed-adjusted z-score is inactive: 0.139.

As to GCUGACAGCUUAGACUUUUTT against HOXA2, the median seed-adjusted z-score is inactive: 0.335.

For GGAAAACGGCAUUGCAGAATT against SLC23A2, the median seed-adjusted z-score was inactive: -0.0585.

For the sequence GGAUAUUAGUGUCGUGCAATT against ARHGEF7, the median seed-adjusted z-score is inactive: 0.185.

For the sequence CGCAAGUUCUAGACCUGGATT against DACH1, the median seed-adjusted z-score is inactive: 0.562.

Take CCUCCGAAUUCUCAACAUATT against CSNK1E: the median seed-adjusted z-score was inactive: -0.796.

On to AGACAACAUUGCAACAAGATT against TFPI, for which the median seed-adjusted z-score was inactive: -0.0076.

In the case of GUGAAACUCUGGUCACUCATT against CILP, the median seed-adjusted z-score was inactive: 0.0436.

Consider CGGCUUGAAUUUGAUCUAUTT against AASDHPPT, for which the median seed-adjusted z-score was inactive: 0.64.

On to GGCUCAGCAUUAUGUCUGUTT against TIMP4, for which the median seed-adjusted z-score was inactive: -0.112.

CUAAUGGGAUUGUAACUGUTT against TGFBI: the median seed-adjusted z-score is inactive: 0.

For CCGCUUCACAGGUAGUUAATT against NUP93, the median seed-adjusted z-score is active: 1.01.

As to GGCGUGCCUUUCAUCCUGATT against H6PD, the median seed-adjusted z-score was inactive: 0.069.

Turning to GUCUGCUACGCAAAACAUUTT against SPSB2, the median seed-adjusted z-score is inactive: -0.741.

Take GCUGCGUGCUGAUCAUGUATT against CALY: the median seed-adjusted z-score was inactive: 0.216.

With AGAUAAGGAUGAAUUGAUATT against KLRB1, the median seed-adjusted z-score was inactive: -0.44.

GACGUUGUGCUGCUACCUATT against EDA: the median seed-adjusted z-score is inactive: 0.316.

As to GAGUUUGAACGGGAAACAATT against BTN2A1, the median seed-adjusted z-score was inactive: 0.302.

For GGAAAGCUGUGAAAGUUCUTT against LDLRAD3, the median seed-adjusted z-score was inactive: -0.133.

As to CGGAAUAUAUUAUUCGAGUTT against PXK, the median seed-adjusted z-score was inactive: -0.4.

With GGAGGCUAAUCCUACUUCATT against RSAD1, the median seed-adjusted z-score is inactive: -0.269.

As for GGAAGACUAGUGAAACCCATT against MAFF, the median seed-adjusted z-score is inactive: 0.42.

Turning to CAAUCACCUGCGUACAGAATT against COL1A1, the median seed-adjusted z-score was inactive: 0.

For GCAGUGAGAGAUGCACUGATT against ATP5E, the median seed-adjusted z-score is inactive: -0.724.

As to GAAGAGAUCCAGUCGCAUATT against DNAH2, the median seed-adjusted z-score was inactive: -0.342.

For GGGAUUAUCUUGCUUCCAATT against LPCAT2, the median seed-adjusted z-score was inactive: 0.

As to CCUUACCUGGAGUACCCAATT against PMPCA, the median seed-adjusted z-score was inactive: -0.985.

For the sequence GAUUCAGUGUGGGAGAGUUTT against MCAT, the median seed-adjusted z-score is inactive: 0.

On to AGGUACGUGUUUGACAUUATT against GDF5, for which the median seed-adjusted z-score is inactive: -0.0507.

Take GCCCGAAGGAUGAUUCAAATT against FOXK2: the median seed-adjusted z-score is inactive: -0.348.

Turning to GCUAAAGCCCAGUAUCUCATT against CROT, the median seed-adjusted z-score was inactive: -0.612.

Regarding GAGAAACGGUCAUCACUGATT against TBC1D25, the median seed-adjusted z-score is inactive: 0.0296.

Turning to GCUUCUCUCGGAUUGCGUATT against TRPC3, the median seed-adjusted z-score was inactive: -0.0856.

Turning to CUACAGUAACUAUUCCAAATT against FPR2, the median seed-adjusted z-score was inactive: -0.166.

Turning to GCUUGUUACUUUGCAACAATT against GDA, the median seed-adjusted z-score is inactive: -0.406.

For CGCGCAACAUCGUCAAGUATT against LPHN1, the median seed-adjusted z-score is active: -1.03.

With GAAGAUAUCAUUACACUAATT against PCNA, the median seed-adjusted z-score was inactive: 0.0727.

For AGAAUUCCUAGAUAUCUGUTT against CDC14B, the median seed-adjusted z-score is inactive: 0.325.

Take CCACGUUUGUCACUCAUGUTT against STAB1: the median seed-adjusted z-score was inactive: 0.264.

Turning to GAAUCGGCGAUGUACUAGATT against NT5C3, the median seed-adjusted z-score was inactive: -0.456.

In the case of GCAUGAGCGAGAAUGGCUATT against AZU1, the median seed-adjusted z-score was inactive: 0.349.

As for GUGACUUCCUGGAACGUAUTT against POLL, the median seed-adjusted z-score was inactive: -0.334.

GCCCAUCGUGUAUACUUCATT against AFMID: the median seed-adjusted z-score is inactive: -0.515.

As to UCCCAGUUCUGAUACAUAUTT against SAE1, the median seed-adjusted z-score was inactive: 0.831.

Take GAGUUUCAAUUUCAACAUUTT against NEGR1: the median seed-adjusted z-score was inactive: 0.194.

Turning to GAUUCGUUCAGAGUCUAAATT against BIRC3, the median seed-adjusted z-score is inactive: -0.644.

With GUCUCACUGUGGACGAAAATT against ZNF57, the median seed-adjusted z-score was inactive: 0.

For GAGCAUACAAGUGCAGUUATT against FBXO4, the median seed-adjusted z-score was inactive: -0.0767.

Turning to CCAUCUACGGUGACCUGAATT against AARS, the median seed-adjusted z-score is inactive: 0.

As to GACUCUGAAUGCUUGCUGUTT against MMS19, the median seed-adjusted z-score is inactive: 0.0142.

On to UGACCAAGAGUGCAGAUUUTT against RGS11, for which the median seed-adjusted z-score is inactive: 0.

Regarding GCUUCUACCCGAUCAACCATT against MMP23B, the median seed-adjusted z-score is inactive: 0.288.

Consider CUACUACCGGGAUAGAGAUTT against APOBEC3D, for which the median seed-adjusted z-score was inactive: -0.0215.

As to CACGUUCACUGUGAACGAATT against HECW2, the median seed-adjusted z-score is inactive: 0.38.

As for AGGUGAAUAUUGACCACUUTT against RGS5, the median seed-adjusted z-score was inactive: 0.

GGAUGAAGGUAGAAAUGGATT against HK2: the median seed-adjusted z-score was inactive: -0.0135.

For ACUUCCAGAUUAUAGACAATT against NDUFB3, the median seed-adjusted z-score is inactive: -0.00982.

GCAAGACCGUGAGACAACUTT against SENP7: the median seed-adjusted z-score was inactive: 0.547.

CCUCGGAAGUGGAAGAGAUTT against SMARCB1: the median seed-adjusted z-score was inactive: 0.05.

With CCUGUUUCCGUGAAGAAAATT against CXCR4, the median seed-adjusted z-score is inactive: -0.347.

Take AGUUCUCCGCGUUCAUCAATT against CLIC3: the median seed-adjusted z-score was inactive: 0.

Take CAUCUACUUUAGUUCAUAATT against PAPOLG: the median seed-adjusted z-score is inactive: 0.0674.

On to GCCCAGUCUUCAAAGGAUUTT against SLC23A1, for which the median seed-adjusted z-score was inactive: 0.904.

With GCUUUACAGUCGGAAAAUATT against RND3, the median seed-adjusted z-score is inactive: -0.132.

With CUACUGGGCUCGUCUCUUUTT against FOXL2, the median seed-adjusted z-score is inactive: -0.166.

In the case of GGAGUGUGGAAGUCCAUAATT against CD38, the median seed-adjusted z-score is inactive: 0.192.

For the sequence CGCAAAAUCUUCUAACGCATT against POU2F1, the median seed-adjusted z-score is inactive: 0.317.

For the sequence GACUAGUUAUAUCCAACAATT against TRIM37, the median seed-adjusted z-score was inactive: -0.108.

In the case of GAAUUGUCUUAAGUGUAGATT against C1GALT1C1, the median seed-adjusted z-score was inactive: 0.

As to GGGAGCAAUUGGUAAGGCATT against GARS, the median seed-adjusted z-score was inactive: 0.138.

CGACAAGUUGAAGACCAUATT against CRMP1: the median seed-adjusted z-score is inactive: -0.354.

As to CAAGGAGAUUGAGAGCUUUTT against GPX7, the median seed-adjusted z-score is inactive: -0.971.

On to CACGAGUGAUUCAGAUAUATT against MORC1, for which the median seed-adjusted z-score is inactive: -0.719.

On to ACACAGUUGCGUGCACUGATT against TNXB, for which the median seed-adjusted z-score was inactive: -0.0996.

As for CAACAGCCGUAGCAUUUUUTT against STX10, the median seed-adjusted z-score was inactive: 0.772.

On to GCAAAGGAAUUGCUAGUAATT against LIPC, for which the median seed-adjusted z-score was inactive: 0.244.

As for CCUGGAUCUUGAUAAGUUUTT against FMNL3, the median seed-adjusted z-score was inactive: 0.481.

Consider CACCUAUCACCGAAAUGGATT against SEMA3G, for which the median seed-adjusted z-score is inactive: 0.00615.

As for CAACAAUGUGGUUCCUAUUTT against RAB11A, the median seed-adjusted z-score was inactive: -0.0554.

For the sequence GCUCAACAUCGAUCACCUUTT against TNNT3, the median seed-adjusted z-score was inactive: -0.293.

Consider CCAGGAAGCUAUAUGAGAATT against TMPO, for which the median seed-adjusted z-score was inactive: -0.0406.

Take UGUAUUCACUAGACAAGUATT against ARR3: the median seed-adjusted z-score was inactive: -0.0936.

Consider CAAGGAGAGGCAUAACGUATT against DNASE1L3, for which the median seed-adjusted z-score was inactive: 0.0678.

As to CAUCAGGCGCGAUAUCUUUTT against SLC27A4, the median seed-adjusted z-score is inactive: 0.119.

As to CAGUCCCAAUAAUCACGAATT against ARPC1A, the median seed-adjusted z-score was inactive: -0.433.

With AGACCUUCCUGGUGAAUGATT against LRFN1, the median seed-adjusted z-score is inactive: 0.605.

Regarding GCUCCAGUCUUUUCGCAAATT against DSG4, the median seed-adjusted z-score is inactive: -0.0211.

On to UCUUCUUUUUCGUUCCUUUTT against TLX3, for which the median seed-adjusted z-score was inactive: 0.0771.

In the case of AUAUGGAACAGUGAACUUATT against EDEM2, the median seed-adjusted z-score was inactive: 0.36.

Turning to GCAUUUAGUUCACUGGAAUTT against CA5A, the median seed-adjusted z-score was inactive: -0.0668.

For GAGCGAUAUGAAAUCGUUATT against CLK2, the median seed-adjusted z-score is inactive: -0.0591.

For CCCUGAUAAUGGUAGCCCATT against SLC4A4, the median seed-adjusted z-score is inactive: 0.43.

Consider CAUUGACUAUAGAAUGAGATT against SNRPN, for which the median seed-adjusted z-score was inactive: -0.571.

As for UGGACGCCCUCAGAAAAGATT against HES4, the median seed-adjusted z-score was inactive: 0.705.

Turning to CCAUUGACGUGAAAUCGAUTT against PDE8B, the median seed-adjusted z-score is inactive: 0.217.

For GGAUUGCCGGUACAGCAAATT against CABIN1, the median seed-adjusted z-score is inactive: -0.446.

Regarding GGAUCGGUGUAGUUAAAAATT against OLIG3, the median seed-adjusted z-score is inactive: -0.598.

As to GGAACUAAAAGGAAAGAUUTT against ARG1, the median seed-adjusted z-score was inactive: -0.108.

CAGAAGACAUUAUCGUGAUTT against TDO2: the median seed-adjusted z-score was inactive: -0.141.

CCACGUACCCUUCAUCAAATT against KIF11: the median seed-adjusted z-score is inactive: -0.381.

As to GGAAGAAUCGCGUCCAGAATT against ZDHHC9, the median seed-adjusted z-score was inactive: -0.495.

Consider GGUCGUGCGUUACCCAAAATT against ZNF618, for which the median seed-adjusted z-score is inactive: 0.311.

On to CCACAAUUGUUGUUCACAUTT against PDC, for which the median seed-adjusted z-score was inactive: -0.541.

For the sequence CCUCAUUUGUCCACAUAGATT against IPO5, the median seed-adjusted z-score was inactive: -0.299.

Take GAACGGAGCUUUGACUGUATT against GFI1: the median seed-adjusted z-score is inactive: -0.047.

Take CGACAUUGGUGACCCUCUUTT against DDOST: the median seed-adjusted z-score was inactive: -0.315.

Turning to GCCUCAUCUAGACACGGAATT against SP110, the median seed-adjusted z-score was inactive: -0.788.

As for GCGAAUACAGUAUGCAAAATT against SNRPB2, the median seed-adjusted z-score was inactive: -0.967.

The values are drawn from PubChem BioAssay AID1347426 (Functional Genomics Laboratory (NCATS/FGL), 2020).
